Assay results published in paper doi:10.1101/2020.06.06.138008.
Changes are numbered by the printed parent chain. Results are given in words; binding and its absence hold for the method and conditions named. Some entries that bind do so weakly or less than the wild type. Where a sequence is shown, tags or fusion partners need not be part of it. Blank lines part the entries; values can stand above or below the binder they belong to.

Assays:
[1] = target: T1, MlaF, hexa-histidine tagged (subunit of MlaFEDB) (UniProt P63386); experiment: SEC
T1 sequence: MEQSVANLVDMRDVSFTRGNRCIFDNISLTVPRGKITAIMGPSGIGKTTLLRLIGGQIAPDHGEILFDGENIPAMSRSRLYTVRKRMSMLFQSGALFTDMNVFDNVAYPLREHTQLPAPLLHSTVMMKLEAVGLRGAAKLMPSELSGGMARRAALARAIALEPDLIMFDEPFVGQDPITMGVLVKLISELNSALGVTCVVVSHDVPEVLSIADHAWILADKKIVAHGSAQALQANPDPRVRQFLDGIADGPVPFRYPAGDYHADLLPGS

[2] = target: T2, MlaF K47R, hexa-histidine tagged (subunit of MlaF_(K47R)EDB) (UniProt P63386); experiment: SEC
T2 sequence: T1 sequence with K47R

binding [1]: binds
binding [2]: binds
B1: MlaE (subunit of MlaFEDB) (protein, UniProt P64606 1-260)
chain: MLLNALASLGHKGIKTLRTFGRAGLMLFNALVGKPEFRKHAPLLVRQLYNVGVLSMLIIVVSGVFIGMVLGLQGYLVLTTYSAETSLGMLVALSLLRELGPVVAALLFAGRAGSALTAEIGLMRATEQLSSMEMMAVDPLRRVISPRFWAGVISLPLLTVIFVAVGIWGGSLVGVSWKGIDSGFFWSAMQNAVDWRMDLVNCLIKSVVFAITVTWISLFNGYDAIPTSAGISRATTRTVVHSSLAVLGLDFVLTALMFGN

binding [1]: binds
binding [2]: binds
B2: MlaD (subunit of MlaFEDB) (protein, UniProt P64604 1-183)
chain: MQTKKNEIWVGIFLLAALLAALFVCLKAANVTSIRTEPTYTLYATFDNIGGLKARSPVSIGGVVVGRVADITLDPKTYLPRVTLEIEQRYNHIPDTSSLSIRTSGLLGEQYLALNVGFEDPELGTAILKDGDTIQDTKSAMVLEDLIGQFLYGSKGDDNKNSGDAPAAAPGNNETTEPVGTTK
